PubChem BioAssay AID652259 – Drosophila RNAi Screening Center | 2013
Assay: 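Identify new Wingless signalling regulators in fly cells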 (primary screen). System: Drosophila clone 8 imaginal disc epithelial cells. Reagents: long dsRNA against Drosophila genes. Conditions: pathway stimulated by co-transfected Wingless expression plasmid. Measurement: 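Firefly luciferase from a tcf-site Wingless reporter, measured alongside co-transfected Renilla luciferase that tracks transfection; pathway stimulated by a Wingless plasmid; the firefly-to-Renilla ratio is not deposited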. Reading the numbers: firefly reporter light: higher = more Wg reporter light, before normalisation; Renilla control light: higher = more transfected or surviving cells. Active means: 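Strong candidates differ from their plate mean by at least two out of four per-plate statistical tests; weak candidates meet just one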. Meaning of the calls: active = candidate regulator (raises or lowers reporter); inactive = not a candidate.
The deposit covers about 22,000 reagents; shown is an unselected part of those with a known target gene and a result. Over the whole deposit, 233 (1.1%) are marked active. 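Light values are raw, unnormalised plate reads; the ratio scores behind the reporter calls were not deposited.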 A plus sign joins genes that one reagent is predicted to hit. The record does not give: the amount of reagent, the time to read-out, the dose of the treatment.

Target gene | DRSC id | reporter change call, replicate 1 | firefly reporter light, replicate 1 | firefly reporter light, replicate 2 | Renilla control light, replicate 1 | Renilla control light, replicate 2 | activity call
CG4036 | DRSC02735 | – | 3796 | – | 2737 | – | inactive
temp | DRSC18271 | – | 3117 | 7617 | 1402 | 2411 | inactive
CR43670 + CR43671 + CR43669 | DRSC01554 | – | 15760 | – | 9191 | – | inactive
CR43670 + CR43671 + CR43669 | DRSC01556 | – | 27624 | – | 14428 | – | inactive
CG9945 | DRSC07347 | – | 7602 | – | 3344 | – | inactive
rux | DRSC18829 | – | 2070 | 5056 | 688 | 1844 | inactive
CG7453 | DRSC20046 | – | 20891 | – | 9504 | – | inactive
Atg18b | DRSC03108 | – | 7004 | – | 1547 | – | inactive
CG42854 | DRSC19173 | – | 4518 | – | 1400 | – | inactive
CG3104 | DRSC00567 | – | 4900 | 10485 | 1472 | 3122 | inactive
bw | DRSC04005 | – | 11752 | – | 7943 | – | inactive
bw | DRSC04677 | – | 9939 | – | 2747 | – | inactive
RanGAP | DRSC22003 | – | 5.51e5 | 5.97e5 | 1.49e5 | 1.70e5 | inactive
l(2)gl | DRSC00825 | – | 3504 | – | 1115 | – | inactive
CG14130 | DRSC10134 | – | 5532 | – | 1572 | – | inactive
CG10654 | DRSC09767 | – | 6199 | – | 2275 | – | inactive
sona | DRSC04089 | – | 2187 | 6464 | 658 | 1911 | inactive
sona | DRSC04574 | – | 3048 | 5968 | 570 | 2240 | inactive
sona | DRSC04575 | – | 2439 | 6144 | 699 | 2347 | inactive
CG1246 | DRSC08275 | Wg reporter activity raised | 5581 | – | 2556 | – | inactive
CG42662 + CG30080 | DRSC05571 | – | 21003 | – | 20656 | – | inactive
CG30378 | DRSC05071 | – | 11836 | – | 6754 | – | inactive
CG6508 | DRSC02963 | – | 2503 | 5490 | 1275 | 3136 | inactive
CG8736 | DRSC07255 | – | 3481 | 11052 | 1475 | 4266 | inactive
CG31205 | DRSC13438 | – | 3200 | – | 1834 | – | inactive
mtDNA-helicase | DRSC02912 | – | 1590 | 5594 | 577 | 2245 | inactive
Hsc70-3 | DRSC20253 | – | 17776 | – | 4528 | – | inactive

11 entries from above, set out differently.
{"Target gene":"CG10654","DRSC id":"DRSC09767","firefly reporter light, replicate 1":6199,"Renilla control light, replicate 1":2275,"activity call":"inactive"}
{"Target gene":"sona","DRSC id":"DRSC04089","firefly reporter light, replicate 1":2187,"firefly reporter light, replicate 2":6464,"Renilla control light, replicate 1":658,"Renilla control light, replicate 2":1911,"activity call":"inactive"}
{"Target gene":"sona","DRSC id":"DRSC04574","firefly reporter light, replicate 1":3048,"firefly reporter light, replicate 2":5968,"Renilla control light, replicate 1":570,"Renilla control light, replicate 2":2240,"activity call":"inactive"}
{"Target gene":"sona","DRSC id":"DRSC04575","firefly reporter light, replicate 1":2439,"firefly reporter light, replicate 2":6144,"Renilla control light, replicate 1":699,"Renilla control light, replicate 2":2347,"activity call":"inactive"}
{"Target gene":"CG1246","DRSC id":"DRSC08275","reporter change call, replicate 1":"Wg reporter activity raised","firefly reporter light, replicate 1":5581,"Renilla control light, replicate 1":2556,"activity call":"inactive"}
{"Target gene":"CG42662 + CG30080","DRSC id":"DRSC05571","firefly reporter light, replicate 1":21003,"Renilla control light, replicate 1":20656,"activity call":"inactive"}
{"Target gene":"CG30378","DRSC id":"DRSC05071","firefly reporter light, replicate 1":11836,"Renilla control light, replicate 1":6754,"activity call":"inactive"}
{"Target gene":"CG6508","DRSC id":"DRSC02963","firefly reporter light, replicate 1":2503,"firefly reporter light, replicate 2":5490,"Renilla control light, replicate 1":1275,"Renilla control light, replicate 2":3136,"activity call":"inactive"}
{"Target gene":"CG8736","DRSC id":"DRSC07255","firefly reporter light, replicate 1":3481,"firefly reporter light, replicate 2":11052,"Renilla control light, replicate 1":1475,"Renilla control light, replicate 2":4266,"activity call":"inactive"}
{"Target gene":"CG31205","DRSC id":"DRSC13438","firefly reporter light, replicate 1":3200,"Renilla control light, replicate 1":1834,"activity call":"inactive"}
{"Target gene":"mtDNA-helicase","DRSC id":"DRSC02912","firefly reporter light, replicate 1":1590,"firefly reporter light, replicate 2":5594,"Renilla control light, replicate 1":577,"Renilla control light, replicate 2":2245,"activity call":"inactive"}

Further reagents:
Target gene | DRSC id | reporter change call, replicate 1 | firefly reporter light, replicate 1 | firefly reporter light, replicate 2 | Renilla control light, replicate 1 | Renilla control light, replicate 2 | activity call
Gdh | DRSC16679 | – | 1277 | 3729 | 790 | 1632 | inactive
ATP8A | DRSC05421 | – | 14822 | – | 12164 | – | inactive
ATP8A | DRSC06643 | – | 13408 | – | 3553 | – | inactive
ATP8A | DRSC06644 | – | 6050 | – | 2356 | – | inactive
CG34144 (retired record) | DRSC18885 | – | 3971 | – | 1137 | – | inactive
CG34144 (retired record) | DRSC19380 | – | 14693 | – | 11256 | – | inactive
CG34144 (retired record) | DRSC19480 | – | 22637 | – | 9243 | – | inactive
CG14777 | DRSC18563 | – | 23504 | – | 21232 | – | inactive
Nup358 | DRSC14410 | – | 5141 | 9555 | 1418 | 2433 | inactive
CG9154 | DRSC03150 | – | 7728 | – | 3899 | – | inactive
Ir31a | DRSC22358 | – | 4.89e5 | 6.09e5 | 1.80e5 | 2.38e5 | inactive
Prp5 | DRSC19975 | – | 21053 | – | 9975 | – | inactive
Blos4 | DRSC10151 | – | 10141 | – | 4470 | – | inactive
Ranbp21 | DRSC19447 | – | 1922 | 8177 | 788 | 2007 | inactive
Bem46 | DRSC00275 | – | 5457 | 6108 | 1250 | 1723 | inactive
ApepP | DRSC01866 | – | 7494 | – | 3362 | – | inactive
CG44837 | DRSC10133 | – | 4624 | – | 1667 | – | inactive
CG44837 | DRSC10558 | – | 4901 | – | 2275 | – | inactive
CG34041 | DRSC22276 | – | 7.23e5 | 7.17e5 | 3.42e5 | 3.56e5 | inactive
CG30096 | DRSC21744 | – | 2.49e5 | 3.89e5 | 1.86e5 | 1.89e5 | inactive
CG14810 | DRSC17693 | – | 2519 | – | 1387 | – | inactive
CG14810 | DRSC17961 | – | 21120 | – | 14871 | – | inactive
CG13192 | DRSC06317 | – | 4008 | – | 1653 | – | inactive
Megf8 | DRSC03058 | – | 9768 | – | 4152 | – | inactive
CG17321 | DRSC02598 | – | 2026 | 6458 | 491 | 3008 | inactive
Sf3b2 | DRSC00619 | – | 10258 | – | 3004 | – | inactive
Frmd5 | DRSC02802 | – | 2113 | 6409 | 790 | 3472 | inactive
CG17343 | DRSC02606 | – | 3074 | 11497 | 961 | 3654 | inactive
CG17343 | DRSC22807 | – | 5.25e5 | 5.03e5 | 1.14e5 | 1.49e5 | inactive
CG42402 | DRSC21116 | – | 13581 | – | 10038 | – | inactive
dimm | DRSC03100 | – | 2759 | 10688 | 845 | 3248 | inactive
CG13928 | DRSC08397 | – | 4749 | – | 1584 | – | inactive
CR30409 | DRSC22058 | – | 3.92e5 | 4.28e5 | 1.53e5 | 1.65e5 | inactive
CG13614 | DRSC14617 | – | 11560 | – | 10116 | – | inactive
mad2 | DRSC10274 | – | 1584 | 7004 | 1157 | 1994 | inactive
pasha | DRSC15295 | – | 3766 | 5544 | 1460 | 2157 | inactive
CG6435 | DRSC06987 | – | 4055 | – | 1904 | – | inactive
scpr-B | DRSC15200 | – | 6535 | – | 2412 | – | inactive
Tango1 | DRSC02127 | – | 5680 | – | 3685 | – | inactive
Naprt | DRSC00630 | – | 14297 | – | 6001 | – | inactive
Glut4EF | DRSC14347 | Wg reporter activity raised | 23357 | – | 2566 | – | active
Glut4EF | DRSC14512 | – | 17852 | – | 4733 | – | inactive
Glut4EF | DRSC14541 | – | 16659 | – | 3920 | – | inactive
Glut4EF | DRSC14542 | – | 17113 | – | 4089 | – | inactive
Glut4EF | DRSC14543 | – | 19611 | – | 4625 | – | inactive
CG8834 | DRSC07283 | – | 5234 | – | 2371 | – | inactive
